Experimental data: PubChem BioAssay AID1508597 (Cure First, 2020)

Screen: 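Knock-downs altering ovarian cancer cell survival with or without PARP inhibitor rucaparib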 (primary screen)
Cells: human ovarian carcinoma lines grown from tumours: OCI-P5x (papillary serous) and OCI-C5x (clear cell)
Reagents: siRNA pool against human genes, 1.25 pmol siRNA per well
Duration: 72 h or 96 h, depending on the cell culture
Challenge: rucaparib 20 µM (about IC30) or vehicle, present until read-out
Rucaparib or vehicle: Rucaparib
Cell line: OCI-C5x (clear cell)
Detection: 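ATP luminescence measured at 72 or 96 h according to the culture, then normalised and expressed as percent viability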
Reading the numbers: viability, normalised: higher = more viable cells remaining
Call rule: 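a well counts as a hit if its normalised viability is under 80 percent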
Meaning of the calls: active = viability under 80%; inactive = viability 80% or more
This is an unselected part of the about 2,100 reagents, in one setting of the screen. 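Calls flag viability under 80% in either arm, not effects specific to rucaparib; the reference for percent is not stated.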 Not stated in the record: the 100% reference.

CDH4 (cadherin 4), technical replicate 1 gave viability, normalised (%) = 74.9; active.
CDH4 (cadherin 4), technical replicate 2 scored viability, normalised (%) = 64.6; active.
CDH4 (cadherin 4), technical replicate 3 showed viability, normalised (%) = 81.1; inactive.
FOXP3 (forkhead box P3), technical replicate 1 scored viability, normalised (%) = 59.2; active.
FOXP3 (forkhead box P3), technical replicate 2 gave viability, normalised (%) = 50.4; active.
With FOXP3 (forkhead box P3), technical replicate 3, the values are viability, normalised (%) = 51.8; active.
CLDN6 (claudin 6), technical replicate 1 showed viability, normalised (%) = 80.7; inactive.
With CLDN6 (claudin 6), technical replicate 2, the entry reads viability, normalised (%) = 70.4; active.
CLDN6 (claudin 6), technical replicate 3 showed viability, normalised (%) = 91.5; inactive.
DDX20 (DEAD-box helicase 20), technical replicate 1 showed viability, normalised (%) = 57.1; active.
For DDX20 (DEAD-box helicase 20), technical replicate 2 the deposit lists viability, normalised (%) = 50.6; active.
With DDX20 (DEAD-box helicase 20), technical replicate 3, the entry reads viability, normalised (%) = 44.2; active.
